These results are taken from PMC10760972.

The chains behind the UniProt entries cited, without tags or fusion partners.
UniProt P51587: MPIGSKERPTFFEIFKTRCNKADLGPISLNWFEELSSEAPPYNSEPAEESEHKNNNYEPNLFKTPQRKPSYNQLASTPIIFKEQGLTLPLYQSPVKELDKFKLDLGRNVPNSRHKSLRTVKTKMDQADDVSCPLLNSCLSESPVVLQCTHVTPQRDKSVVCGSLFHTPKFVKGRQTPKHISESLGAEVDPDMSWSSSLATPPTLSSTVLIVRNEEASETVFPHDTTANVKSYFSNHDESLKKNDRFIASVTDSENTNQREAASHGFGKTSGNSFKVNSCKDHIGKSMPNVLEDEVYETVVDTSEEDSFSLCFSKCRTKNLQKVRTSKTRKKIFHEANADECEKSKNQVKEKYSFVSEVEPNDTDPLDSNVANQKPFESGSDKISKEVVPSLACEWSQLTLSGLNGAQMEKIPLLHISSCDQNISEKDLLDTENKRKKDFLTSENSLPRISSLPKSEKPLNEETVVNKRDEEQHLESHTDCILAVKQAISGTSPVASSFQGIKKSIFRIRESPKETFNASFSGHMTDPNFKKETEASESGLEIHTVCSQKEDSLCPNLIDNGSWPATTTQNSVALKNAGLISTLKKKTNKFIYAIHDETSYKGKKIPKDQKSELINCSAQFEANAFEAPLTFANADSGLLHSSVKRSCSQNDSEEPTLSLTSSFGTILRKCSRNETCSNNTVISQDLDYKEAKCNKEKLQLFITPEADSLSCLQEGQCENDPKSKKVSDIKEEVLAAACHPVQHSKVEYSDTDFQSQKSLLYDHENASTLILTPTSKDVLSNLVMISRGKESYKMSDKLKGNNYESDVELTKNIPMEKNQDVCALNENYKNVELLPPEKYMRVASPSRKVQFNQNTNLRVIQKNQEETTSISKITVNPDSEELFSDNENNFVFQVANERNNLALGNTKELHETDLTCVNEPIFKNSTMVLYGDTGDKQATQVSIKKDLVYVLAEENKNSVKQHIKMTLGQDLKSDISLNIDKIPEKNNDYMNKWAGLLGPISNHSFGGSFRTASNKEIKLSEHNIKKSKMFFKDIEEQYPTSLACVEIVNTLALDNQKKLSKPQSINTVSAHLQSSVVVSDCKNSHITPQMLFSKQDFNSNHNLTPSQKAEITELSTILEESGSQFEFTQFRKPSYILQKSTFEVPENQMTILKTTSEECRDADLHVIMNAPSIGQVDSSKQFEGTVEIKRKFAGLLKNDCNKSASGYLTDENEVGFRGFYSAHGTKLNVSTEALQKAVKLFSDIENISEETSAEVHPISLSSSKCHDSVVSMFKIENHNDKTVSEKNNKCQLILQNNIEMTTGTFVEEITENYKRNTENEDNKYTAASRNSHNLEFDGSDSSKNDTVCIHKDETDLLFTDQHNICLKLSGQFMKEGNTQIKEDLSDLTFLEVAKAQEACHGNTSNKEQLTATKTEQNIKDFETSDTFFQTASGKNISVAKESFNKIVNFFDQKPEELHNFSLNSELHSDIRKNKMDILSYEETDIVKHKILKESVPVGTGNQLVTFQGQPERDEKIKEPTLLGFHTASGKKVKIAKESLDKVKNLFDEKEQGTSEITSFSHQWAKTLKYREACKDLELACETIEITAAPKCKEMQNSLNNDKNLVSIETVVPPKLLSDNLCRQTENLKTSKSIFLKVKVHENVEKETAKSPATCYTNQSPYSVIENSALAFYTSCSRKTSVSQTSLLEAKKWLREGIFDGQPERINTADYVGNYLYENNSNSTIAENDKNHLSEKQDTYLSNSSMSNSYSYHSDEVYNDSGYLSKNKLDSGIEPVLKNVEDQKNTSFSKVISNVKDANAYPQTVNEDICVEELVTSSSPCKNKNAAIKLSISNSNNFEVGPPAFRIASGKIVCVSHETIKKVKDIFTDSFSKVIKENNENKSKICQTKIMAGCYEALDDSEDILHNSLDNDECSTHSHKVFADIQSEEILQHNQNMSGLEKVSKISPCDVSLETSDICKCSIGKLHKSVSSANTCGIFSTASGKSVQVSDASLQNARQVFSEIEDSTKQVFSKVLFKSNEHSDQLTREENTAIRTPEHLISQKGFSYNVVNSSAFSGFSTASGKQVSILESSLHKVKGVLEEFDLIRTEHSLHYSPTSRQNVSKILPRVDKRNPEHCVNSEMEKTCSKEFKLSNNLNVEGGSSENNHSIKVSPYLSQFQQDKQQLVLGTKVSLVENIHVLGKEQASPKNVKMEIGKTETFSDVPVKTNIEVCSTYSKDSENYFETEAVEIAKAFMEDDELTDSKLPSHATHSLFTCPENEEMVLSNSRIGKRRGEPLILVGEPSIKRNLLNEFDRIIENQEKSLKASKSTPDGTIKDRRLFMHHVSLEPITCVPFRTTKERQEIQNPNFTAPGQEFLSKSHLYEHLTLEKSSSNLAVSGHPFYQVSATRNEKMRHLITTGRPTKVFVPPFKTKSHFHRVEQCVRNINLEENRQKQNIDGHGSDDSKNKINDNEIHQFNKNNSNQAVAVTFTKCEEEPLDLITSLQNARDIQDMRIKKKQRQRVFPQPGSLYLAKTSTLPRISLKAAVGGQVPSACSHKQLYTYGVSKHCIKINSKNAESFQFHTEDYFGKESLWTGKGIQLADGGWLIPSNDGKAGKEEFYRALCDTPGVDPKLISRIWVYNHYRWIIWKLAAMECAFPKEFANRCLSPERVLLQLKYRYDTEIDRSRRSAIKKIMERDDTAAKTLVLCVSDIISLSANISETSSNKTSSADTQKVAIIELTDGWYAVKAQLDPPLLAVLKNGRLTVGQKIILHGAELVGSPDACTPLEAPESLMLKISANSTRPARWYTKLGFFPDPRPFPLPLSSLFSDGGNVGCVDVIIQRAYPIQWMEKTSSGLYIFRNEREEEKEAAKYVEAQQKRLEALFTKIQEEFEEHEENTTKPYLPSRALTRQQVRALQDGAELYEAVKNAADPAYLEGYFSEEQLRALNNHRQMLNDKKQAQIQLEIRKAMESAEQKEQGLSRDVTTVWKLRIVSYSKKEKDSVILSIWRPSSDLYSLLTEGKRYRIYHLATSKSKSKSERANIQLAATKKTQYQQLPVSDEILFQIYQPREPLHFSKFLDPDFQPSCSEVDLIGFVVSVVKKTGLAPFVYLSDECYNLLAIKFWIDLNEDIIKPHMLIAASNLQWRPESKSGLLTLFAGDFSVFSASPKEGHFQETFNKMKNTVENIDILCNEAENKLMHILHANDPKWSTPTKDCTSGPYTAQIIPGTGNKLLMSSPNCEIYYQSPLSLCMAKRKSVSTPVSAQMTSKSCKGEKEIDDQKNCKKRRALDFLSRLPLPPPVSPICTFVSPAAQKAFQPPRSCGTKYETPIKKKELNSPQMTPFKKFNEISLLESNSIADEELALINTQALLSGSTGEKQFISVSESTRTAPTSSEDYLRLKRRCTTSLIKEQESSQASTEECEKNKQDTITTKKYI
UniProt O60566: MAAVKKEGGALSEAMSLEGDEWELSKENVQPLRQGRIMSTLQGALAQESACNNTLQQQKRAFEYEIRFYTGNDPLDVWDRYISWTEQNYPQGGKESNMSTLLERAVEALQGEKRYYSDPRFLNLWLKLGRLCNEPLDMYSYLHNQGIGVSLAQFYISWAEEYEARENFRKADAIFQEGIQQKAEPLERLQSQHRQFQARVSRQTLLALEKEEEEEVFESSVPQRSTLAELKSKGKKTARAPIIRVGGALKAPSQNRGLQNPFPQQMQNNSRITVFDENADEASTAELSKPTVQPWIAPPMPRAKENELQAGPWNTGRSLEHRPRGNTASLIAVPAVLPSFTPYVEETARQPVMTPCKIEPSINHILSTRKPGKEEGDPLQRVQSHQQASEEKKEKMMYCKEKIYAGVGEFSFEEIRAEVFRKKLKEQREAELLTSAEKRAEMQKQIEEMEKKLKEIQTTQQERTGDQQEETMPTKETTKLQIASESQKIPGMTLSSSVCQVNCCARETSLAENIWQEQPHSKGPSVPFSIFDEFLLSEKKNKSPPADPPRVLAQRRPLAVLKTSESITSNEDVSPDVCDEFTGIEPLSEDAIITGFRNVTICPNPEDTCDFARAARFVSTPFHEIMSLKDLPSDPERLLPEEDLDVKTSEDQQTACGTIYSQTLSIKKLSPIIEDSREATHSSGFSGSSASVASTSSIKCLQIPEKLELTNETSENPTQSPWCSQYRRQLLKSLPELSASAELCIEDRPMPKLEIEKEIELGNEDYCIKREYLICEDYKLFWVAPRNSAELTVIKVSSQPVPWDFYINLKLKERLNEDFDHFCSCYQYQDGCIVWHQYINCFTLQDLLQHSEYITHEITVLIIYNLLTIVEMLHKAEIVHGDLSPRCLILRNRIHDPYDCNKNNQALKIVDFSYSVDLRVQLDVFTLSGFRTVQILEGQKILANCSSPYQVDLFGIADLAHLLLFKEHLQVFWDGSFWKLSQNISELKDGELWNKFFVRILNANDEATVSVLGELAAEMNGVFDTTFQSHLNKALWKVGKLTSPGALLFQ
UniProt Q96GD4: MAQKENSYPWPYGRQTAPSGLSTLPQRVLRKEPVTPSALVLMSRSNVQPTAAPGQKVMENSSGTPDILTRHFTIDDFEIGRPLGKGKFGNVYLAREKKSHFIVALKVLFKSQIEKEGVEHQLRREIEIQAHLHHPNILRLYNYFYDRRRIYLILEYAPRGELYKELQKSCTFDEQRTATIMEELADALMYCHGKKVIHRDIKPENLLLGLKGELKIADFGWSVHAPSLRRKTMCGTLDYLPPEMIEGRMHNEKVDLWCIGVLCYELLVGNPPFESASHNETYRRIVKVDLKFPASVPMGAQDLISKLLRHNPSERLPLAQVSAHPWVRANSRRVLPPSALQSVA

In one assay the target is BRCA2 (UniProt P51587). Nature of the assay: affinity purification with mass spectrometry; endogenous immunoprecipitation of BRCA2; eluted proteins identified by mass spectrometry.
In the next assay the target is T1, SFB-NSFL1C (UniProt Q9UNZ2).
T1 sequence: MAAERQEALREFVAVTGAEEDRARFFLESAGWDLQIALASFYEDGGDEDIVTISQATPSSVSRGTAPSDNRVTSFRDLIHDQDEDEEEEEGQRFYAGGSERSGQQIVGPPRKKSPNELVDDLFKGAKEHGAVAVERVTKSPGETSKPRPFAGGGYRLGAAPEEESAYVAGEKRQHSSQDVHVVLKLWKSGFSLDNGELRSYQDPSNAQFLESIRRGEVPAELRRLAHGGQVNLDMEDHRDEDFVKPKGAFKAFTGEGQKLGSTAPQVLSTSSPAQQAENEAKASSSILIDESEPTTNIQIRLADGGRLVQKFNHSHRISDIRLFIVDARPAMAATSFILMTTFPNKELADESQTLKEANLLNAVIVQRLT
Description: affinity purification with mass spectrometry; tandem affinity purification (streptavidin-Sepharose, biotin elution, S-protein agarose; NETN buffer, 4 C) of SFB-NSFL1C from stable HEK293T cells; mass spectrometry.

No constants are given. Whether binding was seen depends on the method and setting. Binding seen in cells or lysates may run through a third protein. Here binding means that the protein was enriched with, or labelled near, the bait; the list need not be complete.

Regarding BubR1 (from UniProt O60566 1-1050), the binding entry with BRCA2 is recorded as “binds”. Consider “Aurora kinase B (AURKB), endogenous (from UniProt Q96GD4 1-344)”, for which the binding result with BRCA2 and with SFB-NSFL1C was “binds” throughout.
